{
  "source": "patent US11331299B2",
  "about": "“Medicinal use of serrulatane diterpenes” (The University of Sydney, priority 2016, dated 2022)",
  "target": "receptors (Bioprint panel)",
  "format": "binding",
  "conditions": "read-out: Reference Compound IC50",
  "note": "Where two headings read alike, the source gives them in different places. At least one structure is not confirmed: it was looked up by name or label, or the drawing left a doubt.",
  "data": [
    {"smiles": "CC(C)C[C@@H]1NC(=O)[C@H](C)NC(=O)[C@H]([C@@H](C)O)NC(=O)[C@H](CCC(=O)O)NC(=O)[C@@H]2CCCN2C(=O)[C@H](C)NC(=O)[C@H](CCCCN)NC(=O)[C@@H]2CSSC[C@@H](C(=O)N[C@@H](CCC(N)=O)C(=O)N[C@@H](CCC(N)=O)C(=O)N[C@@H](Cc3cnc[nH]3)C(N)=O)NC(=O)[C@H](CCCNC(=N)N)NC(=O)[C@H](CCCNC(=N)N)NC(=O)[C@H](C)NC(=O)[C@H](CSSC[C@H](N)C(=O)N[C@@H](CC(N)=O)C(=O)N2)NC1=O", "note": "[apamin]", "values": [
      {"measurement": "IC50", "setting": "SKCa channel (antagonist radioligand)", "result": 0.0097, "unit": "nM"}
    ]},
    {"smiles": "CCOC(=O)C1=C(C)NC(C)=C(C(=O)OC)C1c1cccc([N+](=O)[O-])c1", "note": "(stereo not shown) [nitrendipine]", "values": [
      {"measurement": "IC50", "setting": "Ca2+ channel (L, dihydropyridine site) (antagonist radioligand)", "result": 0.13, "unit": "nM"}
    ]},
    {"smiles": "CC(C)C[C@H](NC(=O)[C@H](CCCCN)NC(=O)[C@H](CCCN=C(N)N)NC(=O)[C@H](C)NC(=O)[C@H](CO)NC(=O)[C@H](CCCCN)NC(=O)[C@H](CCCN=C(N)N)NC(=O)[C@H](C)NC(=O)CNC(=O)[C@@H](NC(=O)[C@H](Cc1ccccc1)NC(=O)CNC(=O)CNC(=O)[C@@H](N)Cc1ccccc1)[C@@H](C)O)C(=O)N[C@@H](C)C(=O)N[C@@H](CC(N)=O)C(=O)N[C@@H](CCC(N)=O)C(=O)O", "note": "[nociceptin]", "values": [
      {"measurement": "IC50", "setting": "OPIOD & OPIOID-LIKE NOP (ORL1) (h) (agonist radioligand)", "result": 0.84, "unit": "nM"}
    ]},
    {"smiles": "COc1ccc(C(=O)O[C@H]2CC[C@@]3(C)[C@@H]4CC[C@H]5[C@]6(O)C[C@H](O)[C@@]7(O)[C@@H](CN8C[C@@H](C)CC[C@H]8[C@@]7(C)O)[C@]6(O)C[C@@]53O[C@]24O)cc1OC", "note": "[veratridine]", "values": [
      {"measurement": "IC50", "setting": "Na+ channel (site 2) (antagonist radioligand)", "result": 5900, "unit": "nM"}
    ]}
  ]
}
